{
  "source": "patent US20130052198A1",
  "about": "“ANTI-INFLAMMATORY FACTORS” (THE GENERAL HOSPITAL CORPORATION, priority 2010, published 2013)",
  "molecules": {"B1": {"name": "UDP-N-acetyl-α-D-galactosamine:polypeptide N-acetylgalactosaminyltransferase 1 (protein, UniProt Q10472 1-559, looked up)", "Polypeptide …": "MRKFAYCKVVLATSLIWVLLDMFLLLYFSECNKCDEKKERGLPAGDVLEPVQKPHEGPGEMGKPVVIPKEDQEKMKEMFKINQFNLMASEMIALNRSLPDVRLEGCKTKVYPDNLPTTSVVIVFHNEAWSTLLRTVHSVINRSPRHMIEEIVLVDDASERDFLKRPLESYVKKLKVPVHVIRMEQRSGLIRARLKGAAVSKGQVITFLDAHCECTVGWLEPLLARIKHDRRTVVCPIIDVISDDTFEYMAGSDMTYGGFNWKLNFRWYPVPQREMDRRKGDRTLPVRTPTMAGGLFSIDRDYFQEIGTYDAGMDIWGGENLEISFRIWQCGGTLEIVTCSHVGHVFRKATPYTFPGGTGQIINKNNRRLAEVWMDEFKNFFYIISPGVTKVDYGDISSRVGLRHKLQCKPFSWYLENIYPDSQIPRHYFSLGEIRNVETNQCLDNMARKENEKVGIFNCHGMGGNQVFSYTANKEIRTDDLCLDVSKLNGPVTMLKCHHLKGNQLWEYDPVKLTLQHVNSNQCLDKATEEDSQVPSIRDCNGSRSQQWLLRNVTLPEIF", "notes": "recombinant protein product of the GALNT1 gene, secreted factor of marrow stromal cells"}, "B2": {"name": "LGALS3BP: Soluble galectin 3 binding protein, highly glycosylated secreted protein; recombinant form tested (protein, UniProt Q08380 19-585, looked up)", "Galectin-3-binding protein": "VNDGDMRLADGGATNQGRVEIFYRGQWGTVCDNLWDLTDASVVCRALGFENATQALGRAAFGQGSGPIMLDEVQCTGTEASLADCKSLGWLKSNCRHERDAGVVCTNETRSTHTLDLSRELSEALGQIFDSQRGCDLSISVNVQGEDALGFCGHTVILTANLEAQALWKEPGSNVTMSVDAECVPMVRDLLRYFYSRRIDITLSSVKCFHKLASAYGARQLQGYCASLFAILLPQDPSFQMPLDLYAYAVATGDALLEKLCLQFLAWNFEALTQAEAWPSVPTDLLQLLLPRSDLAVPSELALLKAVDTWSWGERASHEEVEGLVEKIRFPMMLPEELFELQFNLSLYWSHEALFQKKTLQALEFHTVPFQLLARYKGLNLTEDTYKPRIYTSPTWSAFVTDSSWSARKSQLVYQSRRGPLVKYSSDYFQAPSDYRYYPYQSFQTPQHPSFLFQDKRVSWSLVYLPTIQSCWNYGFSCSSDELPVLGLTKSGGSDRTIAYENKALMLCEGLFVADVTDFEGWKAAIPSALDTNSSKSTSSFPCPAGHFNGFRTVIRPFYLTNSSGVD"}, "B3": {"name": "MFAP5: Microfibrillar-associated protein 5, ECM glycoprotein; recombinant form tested (protein, UniProt Q13361 22-173, looked up)", "Microfibrillar-associated …": "IPLGVNSQRGDDVTQATPETFTEDPNLVNDPATDETVLAVLADIAPSTDDLASLSEKNTTAECWDEKFTCTRLYSVHRPVKQCIHQLCFTSLRRMYIVNKEICSRLVCKEHEAMKDELCRQMAGLPPRRLRRSNYFRLPPCENVDLQRPNGL"}},
  "note": "Some of these results come from one statement about several compounds together.",
  "data": [
    {"tested_on": "human peripheral blood mononuclear cells (PBMCs)", "assay": "PBMC potency assay (IL-10 assay): IL-10 secretion by LPS-stimulated PBMCs, ELISA", "format": "cell-based", "details": "recombinant protein at concentrations in the range of 5 μg/mL; PBMCs stimulated with LPS; baseline = PBMCs never exposed to recombinant protein", "text": "FIG. 1: MSC conditioned medium causes peripheral blood mononuclear cells to secrete IL-10 in response to LPS, providing the basis for differential gene expression analysis to identify genes responsible for the increased activity. (a) Generalized schematic of EPS methodology. Protein products are derived from various cell types in the form of conditioned media and screened for activity in an in vitro potency assay. […] Recombinant protein products of the enriched gene list are then screened in a potency assay and the candidates with the highest activity are assessed for activity in vivo. (b) In vitro potency assay. This assay entails incubating primary human peripheral blood mononuclear cells (PBMCs) in the presence of protein products (e.g., conditioned medium from a cell) for 16 hours, followed by stimulation of the PBMCs with LPS for five hours, and measurement of IL-10 secretion into the supernatant via ELISA. (c) Time course of IL-10 expression from PBMCs when incubated with either bone marrow stromal cell conditioned medium (BMSC-CM) or unconditioned medium (DMEM) in the potency assay. (d) Comparison of potency assay activity of conditioned medium from normal human dermal fibroblasts (FB-CM), BMSCs (BMSC-CM) and BMSCs preincubated with LPS prior to conditioning (BMSCLPS-CM). * p<0.001 compared to FB-CM, ** p<0.001 compared to BMSC-CM. (e) Schematic of the differential gene expression comparison strategy to select for genes uniquely expressed at high levels in LPS stimulated MSCs (MSCLPS) compared to MSCs and fibroblasts (FBs). Analysis was then conducted on the genes identified to select for genes that were most likely to be responsible for secreted proteins. MSCLPS, LPS stimulated MSC; FB, fibroblast. […]\nLeukocytes were prepared from fresh whole human blood, collected and spun in the presence of Ficoll for 30 minutes at 1500×g. […] The resultant supernatants were collected and analyzed via ELISA for human interleukin-10 (IL-10). […]", "values": [
      {"molecule": "B1", "increase of IL-10 secretion over baseline": "greater than 3 fold"},
      {"molecule": "B2", "increase of IL-10 secretion over baseline": "greater than 3 fold"},
      {"molecule": "B3", "increase of IL-10 secretion over baseline": "greater than 3 fold"}
    ]}
  ]
}
